# Results reported in the supplement of paper PMC10849652.
# The chains behind the UniProt entries cited, without tags or fusion partners. Where a name states a change or a piece, a line headed by the entry shows the natural chain unless it says otherwise.
# UniProt Q7Z7E8: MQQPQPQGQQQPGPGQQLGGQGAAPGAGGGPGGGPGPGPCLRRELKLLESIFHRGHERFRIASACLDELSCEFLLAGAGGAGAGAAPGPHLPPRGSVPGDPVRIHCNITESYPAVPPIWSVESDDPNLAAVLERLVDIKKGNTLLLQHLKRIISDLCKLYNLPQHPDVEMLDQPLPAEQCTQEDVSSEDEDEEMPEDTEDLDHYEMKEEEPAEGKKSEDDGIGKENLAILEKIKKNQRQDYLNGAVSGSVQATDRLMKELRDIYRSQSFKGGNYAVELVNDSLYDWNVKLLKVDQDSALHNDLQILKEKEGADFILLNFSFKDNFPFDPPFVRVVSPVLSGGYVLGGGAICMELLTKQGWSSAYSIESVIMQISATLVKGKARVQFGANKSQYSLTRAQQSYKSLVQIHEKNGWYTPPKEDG
# UniProt O94888: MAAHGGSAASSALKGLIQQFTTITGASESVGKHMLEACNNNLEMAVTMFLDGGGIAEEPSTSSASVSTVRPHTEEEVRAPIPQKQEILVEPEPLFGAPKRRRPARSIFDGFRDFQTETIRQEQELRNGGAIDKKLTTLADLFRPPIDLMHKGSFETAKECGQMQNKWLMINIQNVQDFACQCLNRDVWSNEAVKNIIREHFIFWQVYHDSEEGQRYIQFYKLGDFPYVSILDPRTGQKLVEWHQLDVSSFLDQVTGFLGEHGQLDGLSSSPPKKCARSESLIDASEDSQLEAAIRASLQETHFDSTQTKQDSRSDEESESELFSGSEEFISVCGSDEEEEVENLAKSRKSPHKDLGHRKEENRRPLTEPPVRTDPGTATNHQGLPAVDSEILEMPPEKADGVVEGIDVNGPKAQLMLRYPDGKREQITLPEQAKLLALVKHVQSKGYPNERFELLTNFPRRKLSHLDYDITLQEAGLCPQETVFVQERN
# UniProt Q9UMX0, whole entry, looked up: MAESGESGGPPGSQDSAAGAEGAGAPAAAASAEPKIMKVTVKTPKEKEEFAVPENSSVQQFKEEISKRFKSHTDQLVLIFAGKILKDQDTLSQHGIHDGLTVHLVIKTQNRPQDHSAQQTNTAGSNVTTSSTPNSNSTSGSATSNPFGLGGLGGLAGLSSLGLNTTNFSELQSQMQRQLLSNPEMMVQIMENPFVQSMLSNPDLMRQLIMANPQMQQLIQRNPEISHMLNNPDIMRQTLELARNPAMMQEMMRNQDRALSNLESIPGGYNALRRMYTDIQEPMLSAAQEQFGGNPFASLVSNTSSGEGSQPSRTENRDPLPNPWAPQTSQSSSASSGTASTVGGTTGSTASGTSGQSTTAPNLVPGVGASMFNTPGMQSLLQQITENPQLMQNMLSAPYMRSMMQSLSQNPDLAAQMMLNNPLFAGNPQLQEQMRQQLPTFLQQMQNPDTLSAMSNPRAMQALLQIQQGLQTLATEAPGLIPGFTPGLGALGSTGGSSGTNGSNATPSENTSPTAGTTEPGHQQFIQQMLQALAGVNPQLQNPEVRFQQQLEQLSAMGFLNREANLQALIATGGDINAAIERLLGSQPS
# UniProt Q12792, whole entry, looked up: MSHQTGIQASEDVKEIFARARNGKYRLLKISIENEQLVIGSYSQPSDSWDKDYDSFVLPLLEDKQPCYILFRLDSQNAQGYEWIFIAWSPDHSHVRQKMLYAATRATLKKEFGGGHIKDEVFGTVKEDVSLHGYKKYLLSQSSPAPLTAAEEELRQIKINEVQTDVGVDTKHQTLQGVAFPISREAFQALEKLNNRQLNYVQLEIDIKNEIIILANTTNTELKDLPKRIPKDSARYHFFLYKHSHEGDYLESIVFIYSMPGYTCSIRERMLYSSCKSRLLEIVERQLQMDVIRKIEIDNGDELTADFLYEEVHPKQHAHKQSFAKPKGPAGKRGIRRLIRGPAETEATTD
# UniProt Q13509, whole entry, looked up: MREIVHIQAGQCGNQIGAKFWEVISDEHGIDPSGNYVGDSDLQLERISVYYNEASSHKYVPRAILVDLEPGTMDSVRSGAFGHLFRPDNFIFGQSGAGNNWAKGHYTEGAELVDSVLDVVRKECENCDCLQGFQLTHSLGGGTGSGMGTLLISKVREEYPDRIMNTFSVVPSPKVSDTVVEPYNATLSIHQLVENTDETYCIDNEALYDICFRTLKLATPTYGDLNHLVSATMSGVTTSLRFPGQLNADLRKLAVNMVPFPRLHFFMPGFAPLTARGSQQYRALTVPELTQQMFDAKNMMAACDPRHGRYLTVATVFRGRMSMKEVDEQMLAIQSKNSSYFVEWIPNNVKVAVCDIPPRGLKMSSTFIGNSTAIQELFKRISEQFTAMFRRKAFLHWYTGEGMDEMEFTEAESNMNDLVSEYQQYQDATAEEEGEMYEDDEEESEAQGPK
# UniProt Q16881, whole entry, looked up: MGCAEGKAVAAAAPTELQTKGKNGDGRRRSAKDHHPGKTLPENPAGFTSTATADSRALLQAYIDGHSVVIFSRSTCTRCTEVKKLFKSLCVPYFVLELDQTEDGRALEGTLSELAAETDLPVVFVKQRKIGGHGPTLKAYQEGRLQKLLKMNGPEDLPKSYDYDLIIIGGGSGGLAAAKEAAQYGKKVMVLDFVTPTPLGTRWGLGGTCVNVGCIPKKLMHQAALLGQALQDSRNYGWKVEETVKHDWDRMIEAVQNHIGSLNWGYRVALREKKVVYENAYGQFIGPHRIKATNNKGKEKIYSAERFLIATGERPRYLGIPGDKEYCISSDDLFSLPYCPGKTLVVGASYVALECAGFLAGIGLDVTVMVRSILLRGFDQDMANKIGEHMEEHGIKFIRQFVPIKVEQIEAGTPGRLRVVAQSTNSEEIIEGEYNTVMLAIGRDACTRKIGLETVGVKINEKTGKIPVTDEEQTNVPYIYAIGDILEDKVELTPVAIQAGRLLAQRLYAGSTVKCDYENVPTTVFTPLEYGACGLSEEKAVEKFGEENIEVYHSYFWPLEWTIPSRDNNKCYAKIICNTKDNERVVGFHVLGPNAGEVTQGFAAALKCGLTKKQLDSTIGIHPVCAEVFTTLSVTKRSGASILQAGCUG
# UniProt P83876: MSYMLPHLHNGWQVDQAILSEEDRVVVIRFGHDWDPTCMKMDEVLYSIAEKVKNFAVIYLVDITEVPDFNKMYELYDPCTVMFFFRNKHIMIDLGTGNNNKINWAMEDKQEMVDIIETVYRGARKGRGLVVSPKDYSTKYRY
# UniProt P61077: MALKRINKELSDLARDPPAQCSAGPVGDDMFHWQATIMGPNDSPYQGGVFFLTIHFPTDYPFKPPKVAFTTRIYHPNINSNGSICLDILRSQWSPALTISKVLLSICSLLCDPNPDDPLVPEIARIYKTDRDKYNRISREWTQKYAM
# UniProt P68371, whole entry, looked up: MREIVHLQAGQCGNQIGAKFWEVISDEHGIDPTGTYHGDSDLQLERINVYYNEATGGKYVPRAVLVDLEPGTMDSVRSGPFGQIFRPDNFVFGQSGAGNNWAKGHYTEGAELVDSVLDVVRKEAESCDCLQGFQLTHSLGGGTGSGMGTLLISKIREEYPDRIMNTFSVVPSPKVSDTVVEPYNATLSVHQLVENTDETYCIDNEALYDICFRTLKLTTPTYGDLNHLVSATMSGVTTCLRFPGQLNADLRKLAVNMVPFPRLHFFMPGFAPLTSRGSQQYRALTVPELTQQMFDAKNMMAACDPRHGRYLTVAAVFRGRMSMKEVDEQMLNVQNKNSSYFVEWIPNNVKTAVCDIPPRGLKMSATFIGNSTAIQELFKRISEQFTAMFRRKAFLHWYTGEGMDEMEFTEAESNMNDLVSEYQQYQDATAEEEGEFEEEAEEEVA
# UniProt P61081: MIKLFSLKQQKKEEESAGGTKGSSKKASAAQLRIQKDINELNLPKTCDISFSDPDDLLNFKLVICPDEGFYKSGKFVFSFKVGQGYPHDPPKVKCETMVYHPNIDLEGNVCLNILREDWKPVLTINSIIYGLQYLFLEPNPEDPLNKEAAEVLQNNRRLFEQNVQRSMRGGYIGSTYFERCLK
# UniProt Q9NUQ3: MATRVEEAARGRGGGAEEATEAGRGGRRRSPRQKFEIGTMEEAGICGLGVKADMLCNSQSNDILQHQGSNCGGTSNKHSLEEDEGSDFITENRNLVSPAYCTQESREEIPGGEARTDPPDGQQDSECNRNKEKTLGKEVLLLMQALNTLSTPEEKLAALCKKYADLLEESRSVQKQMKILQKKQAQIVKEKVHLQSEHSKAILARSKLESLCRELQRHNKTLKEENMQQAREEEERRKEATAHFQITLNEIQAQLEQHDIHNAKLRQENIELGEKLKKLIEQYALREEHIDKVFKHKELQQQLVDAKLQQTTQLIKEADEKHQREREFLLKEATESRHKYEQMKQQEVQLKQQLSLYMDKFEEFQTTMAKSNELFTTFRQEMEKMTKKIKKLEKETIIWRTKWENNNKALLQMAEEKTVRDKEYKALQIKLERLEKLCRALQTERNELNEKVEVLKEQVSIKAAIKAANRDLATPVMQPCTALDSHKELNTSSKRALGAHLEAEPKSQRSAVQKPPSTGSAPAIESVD
# UniProt Q6IPR3: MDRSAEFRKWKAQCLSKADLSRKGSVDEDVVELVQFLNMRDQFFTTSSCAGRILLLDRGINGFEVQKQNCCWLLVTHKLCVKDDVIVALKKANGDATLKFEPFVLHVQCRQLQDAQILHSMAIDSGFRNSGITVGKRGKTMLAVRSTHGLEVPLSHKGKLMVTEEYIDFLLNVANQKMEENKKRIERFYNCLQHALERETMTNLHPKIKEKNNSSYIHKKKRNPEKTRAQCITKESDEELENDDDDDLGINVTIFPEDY
# UniProt Q8WVN8: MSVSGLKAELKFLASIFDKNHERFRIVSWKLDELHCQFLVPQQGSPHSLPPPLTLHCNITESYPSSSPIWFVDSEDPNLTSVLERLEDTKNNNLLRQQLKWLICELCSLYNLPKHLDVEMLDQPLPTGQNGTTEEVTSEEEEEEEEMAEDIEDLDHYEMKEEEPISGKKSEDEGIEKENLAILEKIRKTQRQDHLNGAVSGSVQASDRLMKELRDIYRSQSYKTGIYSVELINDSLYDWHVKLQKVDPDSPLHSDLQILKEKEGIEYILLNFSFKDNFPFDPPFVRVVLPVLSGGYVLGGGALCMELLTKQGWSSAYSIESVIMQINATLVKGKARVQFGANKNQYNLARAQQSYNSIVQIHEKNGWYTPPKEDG
# UniProt Q9H4B7, whole entry, looked up: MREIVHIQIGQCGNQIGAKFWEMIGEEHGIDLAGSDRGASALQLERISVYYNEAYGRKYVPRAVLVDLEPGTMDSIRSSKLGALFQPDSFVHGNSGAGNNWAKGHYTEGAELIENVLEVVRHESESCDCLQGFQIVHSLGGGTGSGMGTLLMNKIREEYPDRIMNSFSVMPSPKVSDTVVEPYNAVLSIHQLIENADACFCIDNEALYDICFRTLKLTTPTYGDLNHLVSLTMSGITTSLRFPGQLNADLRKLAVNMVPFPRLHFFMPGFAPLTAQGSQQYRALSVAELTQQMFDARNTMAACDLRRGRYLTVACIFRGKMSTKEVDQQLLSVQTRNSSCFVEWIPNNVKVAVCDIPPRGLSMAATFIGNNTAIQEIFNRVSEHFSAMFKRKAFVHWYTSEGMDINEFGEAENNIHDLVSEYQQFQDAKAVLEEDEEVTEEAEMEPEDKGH
# UniProt Q3KQV9: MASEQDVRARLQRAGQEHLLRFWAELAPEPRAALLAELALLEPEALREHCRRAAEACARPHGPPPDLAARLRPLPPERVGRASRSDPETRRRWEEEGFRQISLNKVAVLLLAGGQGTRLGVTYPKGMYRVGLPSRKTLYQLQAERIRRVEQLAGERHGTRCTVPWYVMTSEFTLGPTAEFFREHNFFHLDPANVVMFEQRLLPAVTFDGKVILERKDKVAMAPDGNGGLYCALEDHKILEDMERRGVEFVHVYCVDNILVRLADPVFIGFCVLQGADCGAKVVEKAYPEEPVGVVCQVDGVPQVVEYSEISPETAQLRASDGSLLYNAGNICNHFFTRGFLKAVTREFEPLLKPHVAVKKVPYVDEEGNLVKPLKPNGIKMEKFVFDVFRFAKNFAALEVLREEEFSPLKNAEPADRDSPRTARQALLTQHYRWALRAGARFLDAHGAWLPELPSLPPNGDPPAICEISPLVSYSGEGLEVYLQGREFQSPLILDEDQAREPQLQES
# UniProt P40222: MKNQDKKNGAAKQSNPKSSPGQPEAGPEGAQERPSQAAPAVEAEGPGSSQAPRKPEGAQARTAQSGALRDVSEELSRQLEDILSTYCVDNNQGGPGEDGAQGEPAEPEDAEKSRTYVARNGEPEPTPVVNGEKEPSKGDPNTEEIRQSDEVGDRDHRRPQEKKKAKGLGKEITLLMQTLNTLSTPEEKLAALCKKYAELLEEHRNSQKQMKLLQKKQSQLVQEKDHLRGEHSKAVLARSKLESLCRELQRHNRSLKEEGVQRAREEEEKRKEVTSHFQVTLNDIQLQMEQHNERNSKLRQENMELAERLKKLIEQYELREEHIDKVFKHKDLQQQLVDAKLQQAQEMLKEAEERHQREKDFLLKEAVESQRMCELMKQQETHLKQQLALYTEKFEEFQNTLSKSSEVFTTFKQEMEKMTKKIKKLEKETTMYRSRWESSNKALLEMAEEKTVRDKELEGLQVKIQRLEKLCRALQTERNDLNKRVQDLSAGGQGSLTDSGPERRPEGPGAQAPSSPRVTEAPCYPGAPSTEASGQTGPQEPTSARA
# The other results are listed elsewhere or left out.
# Compound: C1=CC=C(C=C1)[C@H](COC2=CC3=C(C=C2)NC(=O)N3)NC(=O)C4=CC=CN(C4=O)CC5=CC(=C(C=C5)F)F
# Assay: log2 fold change, soluble protein after heating vs DMSO (PISA); higher = thermal stabilisation; K562 lysate, 10 uM; active = over 0.2 and 3.5 SD of the protein, either way, in both replicates (recomputed)
# Summary of the method: (§1)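 Dounce homogenisation of K562 pellets in PBS pH 7.4 with 1 mM MgCl2 produced a crude extract, used at 1 mg/mL protein. Exposure to 10 μM compound lasted 30 min, and aliquots were then heated for 3 min across 48°C-58°C, pooled and brought to 0.5% NP-40 at 4°C. The supernatant after 21,000xg for 90 min was quantified by TMTpro 16plex LC-MS/MS with channel sums equalised. Duplicate values are given as log-two fold change in thermal stability relative to solvent controls.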
row,Target,log2 fold change
1,TUFM (UniProt P49411),inactive: 0.015
2,UBE2Q1 (UniProt Q7Z7E8),inactive: 0.021
3,UBXN7 (UniProt O94888),inactive: 0.035
4,UBQLN1 (UniProt Q9UMX0),inactive: -0.068
5,TWF1 (UniProt Q12792),inactive: -0.003
6,TUBB3 (UniProt Q13509),inactive: 0.014
7,TXNRD1 (UniProt Q16881),inactive: -0.003
8,TXNL4A (UniProt P83876),inactive: 0.036
9,UBE2D3 isoform 3 (UniProt P61077),inactive: -0.017
10,TUBB4A (UniProt M0QYM7),inactive: -0.207

# Compound: CC1=C(SC2=C1C(=N[C@H](C3=NN=C(N32)C)CC(=O)N)C4=CC=C(C=C4)Cl)C
# Assay: as above
# Summary of the method: as §1
row,Target,log2 fold change
1,TXNDC12 (UniProt O95881),inactive: -0.049
2,UBAC2 (UniProt Q8NBM4),inactive: -0.128
3,UBE2H (UniProt P62256),inactive: 0.02
4,TUBB6 (UniProt K7ES63),inactive: 0.02
5,TUBB4B (UniProt P68371),inactive: 0.03
6,TUBB6 (UniProt Q9BUF5),inactive: 0.033
7,UBE2M (UniProt P61081),inactive: 0.016
8,TXLNG (UniProt Q9NUQ3),inactive: 0.009
9,UBE2G1 (UniProt P62253),inactive: 0.014
10,TYW3 (UniProt Q6IPR3),inactive: 0.006
11,UBE2Q2 (UniProt Q8WVN8),inactive: 0.012
12,TUBB1 (UniProt Q9H4B7),inactive: 0.019
13,UBA3 (UniProt Q8TBC4),inactive: 0.027
14,UAP1L1 (UniProt Q3KQV9),inactive: -0.047
15,UBXN2A (UniProt P68543),inactive: 0.009
16,TTPAL (UniProt Q9BTX7),inactive: -0.011
17,TXNRD1 isoform 7 (UniProt Q16881),inactive: -0.025

row,Target,log2 fold change
1,UBQLN2 (UniProt Q9UHD9),inactive: -0.134
2,TXN2 (UniProt Q99757),inactive: -0.143
3,TXNIP (UniProt Q9H3M7),inactive: 0.005
4,UBE2NL (UniProt Q5JXB2),inactive: -0.04
5,TXLNA (UniProt P40222),inactive: 0.01
6,U2SURP (UniProt O15042),inactive: 0.012
7,TUFM (UniProt P49411),inactive: 0.051
8,UBE2Q1 (UniProt Q7Z7E8),inactive: 0.003
9,UBXN7 (UniProt O94888),inactive: -0.031
10,UBQLN1 (UniProt Q9UMX0),inactive: -0.03
11,TWF1 (UniProt Q12792),inactive: 0.02
12,TUBB3 (UniProt Q13509),inactive: -0.005
13,TXNRD1 (UniProt Q16881),inactive: 0.034
14,TXNL4A (UniProt P83876),inactive: -0.024
15,UBE2D3 isoform 3 (UniProt P61077),inactive: -0.006
16,TUBB4A (UniProt M0QYM7),inactive: -0.162

# Compound: CC1=C2C(=CC=C1)N=C(N(C2=O)C3=CC=CC=C3C)CN4C=NC5=C(N=CN=C54)N
# Assay: as above
# Summary of the method: as §1
row,Target,log2 fold change
1,TXNDC12 (UniProt O95881),inactive: -0.003
2,UBAC2 (UniProt Q8NBM4),inactive: 0.094
3,UBE2H (UniProt P62256),inactive: 0.012
4,TUBB6 (UniProt K7ES63),inactive: -0.028
5,TUBB4B (UniProt P68371),inactive: 0.018
6,TUBB6 (UniProt Q9BUF5),inactive: 0.02
7,UBE2M (UniProt P61081),inactive: -0.013
8,TXLNG (UniProt Q9NUQ3),inactive: -0.01
9,UBE2G1 (UniProt P62253),inactive: 0.006
10,TYW3 (UniProt Q6IPR3),inactive: 0.065
11,UBE2Q2 (UniProt Q8WVN8),inactive: -0.007
12,TUBB1 (UniProt Q9H4B7),inactive: 0.008
13,UBA3 (UniProt Q8TBC4),inactive: 0.013
14,UAP1L1 (UniProt Q3KQV9),inactive: -0.083
15,UBXN2A (UniProt P68543),inactive: -0.051
16,TTPAL (UniProt Q9BTX7),inactive: -0.036
17,TXNRD1 isoform 7 (UniProt Q16881),inactive: -0.021

row,Target,log2 fold change
1,UBQLN2 (UniProt Q9UHD9),inactive: -0.026
2,TXN2 (UniProt Q99757),inactive: 0.045
3,TXNIP (UniProt Q9H3M7),inactive: 0.029
4,UBE2NL (UniProt Q5JXB2),inactive: 0.008
5,TXLNA (UniProt P40222),inactive: -0.007
6,U2SURP (UniProt O15042),inactive: 0.041
7,TUFM (UniProt P49411),inactive: 0.023
8,UBE2Q1 (UniProt Q7Z7E8),inactive: 0.013
9,UBXN7 (UniProt O94888),inactive: -0.015
10,UBQLN1 (UniProt Q9UMX0),inactive: -0.046
11,TWF1 (UniProt Q12792),inactive: 0.016
12,TUBB3 (UniProt Q13509),inactive: 0.008
13,TXNRD1 (UniProt Q16881),inactive: 0.002
14,TXNL4A (UniProt P83876),inactive: 0.046
15,UBE2D3 isoform 3 (UniProt P61077),inactive: -0.039
16,TUBB4A (UniProt M0QYM7),inactive: 0.016
